These are literature values, as cited in patent US7098204B2 (C.N.R.S., priority 1999, dated 2006).

The subject of the series is 60 human tumor cell lines. The conditions noted are these: read-out: average IC50 over 60 human tumor cell lines (literature); cited from earlier work.

Structures are written as SMILES.

Consider `CC[C@H](CO)Nc1nc(NCc2ccccc2)c2ncn(C(C)C)c2n1` [roscovitine], for which the IC50 was 16 µM.

What is called IC50 is the point on the concentration scale where inhibition reaches its midpoint.
